Values are relative to the signal before dosing, not to a vehicle control; the signal also falls without drug.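 Labels refer to human fibroblasts, largely primary: uterine (C12385, HUF), lung (H6013), bone (Hs27A), adrenal (HADF), skin (WS1), plus mammary HMF and breast cancer-associated Hs343T. Cancer lines are basal-like or mesenchymal-like triple-negative breast cancer. The paper counts as hits responses shifting over 3x the replicate standard deviation. The tissue of the other fibroblasts is not given here.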
Test system: MDAMB468
Assay: relative JC-1 red fluorescence (viability) vs pre-drug, coculture with fibroblast (fraction); higher = more viable cancer cells
Method: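 JC-1 labelled TNBC cells cocultured 1:1 (1,500 cells each) with CellTrace Violet stained primary or stromal fibroblasts in 384-well plates in FluoroBrite medium, treated with one of 42 anticancer drugs at 0.1, 1, 10 or 100 uM. JC-1 red fluorescence (mitochondrial integrity in cancer cells only) was read by plate reader every 8 h for 72 h. Values are normalised to each well's pre-drug value. The stock of one drug was tenfold lower, so its dose labels may be too high.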

CC(=O)O[C@H]1C(=O)[C@@]2(C)[C@H]([C@H](OC(=O)c3ccccc3)[C@]3(O)C[C@H](OC(=O)[C@H](O)[C@@H](NC(=O)c4ccccc4)c4ccccc4)C(C)=C1C3(C)C)[C@]1(OC(C)=O)CO[C@@H]1C[C@@H]2O [Paclitaxel]
relative JC-1 red fluorescence
Details	8 h	16 h	24 h	32 h	40 h	48 h	56 h	64 h	72 h
0.1 µM, coculture fibroblast: C12385	0.8873	0.8154	0.772	0.726	0.687	0.678	0.63	0.608	0.612
0.1 µM, coculture fibroblast: H6013	0.917	0.83	0.83	0.833	0.816	0.835	0.794	0.809	0.751
0.1 µM, coculture fibroblast: H6019	0.826	0.814	0.816	0.799	0.772	0.77	0.734	0.722	0.71
0.1 µM, coculture fibroblast: H6076	0.943	0.889	0.888	0.898	0.81716	0.81	0.769	0.75	0.814
0.1 µM, coculture fibroblast: H6231	0.84	0.942	0.8625	0.812	0.7393	0.72	0.669	0.641	0.638
0.1 µM, coculture fibroblast: HADF	0.92	0.8146	0.785	0.772	0.729	0.728	0.689	0.674	0.609
0.1 µM, coculture fibroblast: HCFa	0.857	0.803	0.758	0.73	0.647	0.634	0.568	0.523	0.463
0.1 µM, coculture fibroblast: HCPF	0.9059	0.92	0.872	0.899	0.8161	0.775	0.707	0.676	0.655
0.1 µM, coculture fibroblast: HHSteC	0.905	0.844	0.823	0.793	0.73	0.748	0.678	0.652	0.589
0.1 µM, coculture fibroblast: HMF	0.862	0.932	0.858	0.844	0.754	0.728	0.675	0.657	0.638
0.1 µM, coculture fibroblast: HPFa	0.919	0.889	0.822	0.764	0.688	0.674	0.612	0.579	0.5
0.1 µM, coculture fibroblast: HUF	0.9135	0.795	0.72	0.643	0.578	0.546	0.501	0.47	0.447
0.1 µM, coculture fibroblast: Hs5	0.762	0.972	0.9352	0.93	0.855	0.8122	0.758	0.719	0.749
0.1 µM, coculture fibroblast: Hs27A	0.869	0.7955	0.8051	0.79	0.743	0.745	0.726	0.723	0.67
0.1 µM, coculture fibroblast: Hs343T	0.932	0.98206	0.927	0.894	0.8104	0.782	0.6973	0.67	0.641
0.1 µM, coculture fibroblast: WS1	0.8817	0.745	0.702	0.646	0.589	0.553	0.502	0.478	0.477
1 µM, coculture fibroblast: C12385	0.8871	0.823	0.78	0.721	0.677	0.65	0.608	0.59	0.585
1 µM, coculture fibroblast: H6013	0.942	0.912	0.89	0.896	0.888	0.903	0.867	0.873	0.812
1 µM, coculture fibroblast: H6019	0.827	0.799	0.789	0.768	0.747	0.739	0.708	0.682	0.669
1 µM, coculture fibroblast: H6076	0.899	0.893	0.893	0.936	0.864	0.87	0.8526	0.8482	0.9461
1 µM, coculture fibroblast: H6231	0.85246	0.884	0.8034	0.81	0.723	0.719	0.674	0.649	0.653
1 µM, coculture fibroblast: HADF	0.918	0.8656	0.821	0.803	0.761	0.767	0.725	0.724	0.666
1 µM, coculture fibroblast: HCFa	0.871	0.846	0.796	0.768	0.705	0.688	0.627	0.597	0.536
1 µM, coculture fibroblast: HCPF	0.905	0.893	0.868	0.895	0.815	0.785	0.735	0.728	0.731
1 µM, coculture fibroblast: HHSteC	0.92	0.854	0.815	0.782	0.738	0.737	0.666	0.6394	0.585
1 µM, coculture fibroblast: HMF	0.8366	0.9011	0.846	0.8348	0.74365	0.7118	0.6608	0.6419	0.639
1 µM, coculture fibroblast: HPFa	0.935	0.902	0.857	0.795	0.759	0.747	0.671	0.644	0.57
1 µM, coculture fibroblast: HUF	0.903	0.797	0.743	0.68	0.636	0.612	0.56547	0.548	0.529
1 µM, coculture fibroblast: Hs5	0.882	0.87	0.948	0.936	0.842	0.799	0.756	0.725	0.758
1 µM, coculture fibroblast: Hs27A	0.8879	0.8346	0.8247	0.8225	0.786	0.781	0.78	0.781	0.726
1 µM, coculture fibroblast: Hs343T	0.863	0.902	0.837	0.821	0.727	0.692	0.64	0.613	0.592
1 µM, coculture fibroblast: WS1	0.86	0.75489	0.717	0.6548	0.628	0.603	0.582	0.5653	0.5635
10 µM, coculture fibroblast: C12385	0.907	0.855	0.843	0.797	0.76	0.762	0.732	0.71	0.705
10 µM, coculture fibroblast: H6013	0.9194	0.8692	0.8665	0.852	0.815	0.831	0.809	0.8023	0.73901
10 µM, coculture fibroblast: H6019	0.854	0.831	0.821	0.797	0.773	0.774	0.738	0.721	0.716
10 µM, coculture fibroblast: H6076	0.853	0.7938	0.864	0.799	0.957	0.949	0.906	0.885	0.857
10 µM, coculture fibroblast: H6231	0.84	0.975	0.8877	0.834	0.754	0.714	0.646	0.622	0.592
10 µM, coculture fibroblast: HADF	0.94595	0.897	0.876	0.886	0.827	0.822	0.784	0.77	0.709
10 µM, coculture fibroblast: HCFa	0.9152	0.8179	0.8002	0.7613	0.701	0.699	0.666	0.649	0.601
10 µM, coculture fibroblast: HCPF	0.893	0.988	0.921	0.9074	0.836	0.793	0.727	0.705	0.692
10 µM, coculture fibroblast: HHSteC	0.9455	0.919	0.884	0.849	0.7977	0.80676	0.7531	0.7356	0.6925
10 µM, coculture fibroblast: HMF	0.873	0.919	0.9184	0.889	0.825	0.802	0.727	0.707	0.683
10 µM, coculture fibroblast: HPFa	0.865	0.959	0.929	0.89	0.847	0.822	0.783	0.753	0.674
10 µM, coculture fibroblast: HUF	0.9405	0.8601	0.82	0.74	0.687	0.658	0.615	0.598	0.578
10 µM, coculture fibroblast: Hs5	0.859	0.9827	0.948	0.949	0.875	0.838	0.7928	0.768	0.805
10 µM, coculture fibroblast: Hs27A	0.88	0.8635	0.83	0.826	0.781	0.774	0.74	0.725	0.684
10 µM, coculture fibroblast: Hs343T	0.908	0.756	0.9395	0.893	0.793	0.746	0.665	0.633	0.585
10 µM, coculture fibroblast: WS1	0.8995	0.814	0.784	0.728	0.673	0.647	0.622	0.587	0.57

From the supplement of paper PMC6078165
